The data set in a line: Oral administration of garcinol, HCA and combination: body weight, food and fluid consumption in SKH-1 mice. The following applies: 0.05% GAR, 1% HCA, Mean ± SE. In kind it is in vivo.

Consider `O=C(O)CC(O)(C(=O)O)C(O)C(=O)O` (centres unmarked) [HCA, 1,2-dihydroxypropane-1,2,3-tricarboxylic acid], for which the Food consumption runs as follows: (5 weeks) 5.74 ± 0.13 gm/mouse/day; (7 weeks) 6.49 ± 0.07 gm/mouse/day; (10 weeks) 6.93 ± 0.21 gm/mouse/day. For the same compound, the Water consumption is 3.72 ± 0.08 ml/mouse/day (5 weeks) and 3.84 ± 0.09 ml/mouse/day (10 weeks).

These data come from patent US7063861B2, “Bioavailable composition of natural and synthetic HCA” (Sabinsa Corporation, priority 2000, dated 2006).
